Laboratory results taken from the supplement of paper PMC10849652.
The other results are listed elsewhere or left out.

Sequences of proteins named here, by UniProt entry; tags and fusion partners are left off. A change or cut given only in a name is not applied to a line headed by its entry.
UniProt Q9ULK4: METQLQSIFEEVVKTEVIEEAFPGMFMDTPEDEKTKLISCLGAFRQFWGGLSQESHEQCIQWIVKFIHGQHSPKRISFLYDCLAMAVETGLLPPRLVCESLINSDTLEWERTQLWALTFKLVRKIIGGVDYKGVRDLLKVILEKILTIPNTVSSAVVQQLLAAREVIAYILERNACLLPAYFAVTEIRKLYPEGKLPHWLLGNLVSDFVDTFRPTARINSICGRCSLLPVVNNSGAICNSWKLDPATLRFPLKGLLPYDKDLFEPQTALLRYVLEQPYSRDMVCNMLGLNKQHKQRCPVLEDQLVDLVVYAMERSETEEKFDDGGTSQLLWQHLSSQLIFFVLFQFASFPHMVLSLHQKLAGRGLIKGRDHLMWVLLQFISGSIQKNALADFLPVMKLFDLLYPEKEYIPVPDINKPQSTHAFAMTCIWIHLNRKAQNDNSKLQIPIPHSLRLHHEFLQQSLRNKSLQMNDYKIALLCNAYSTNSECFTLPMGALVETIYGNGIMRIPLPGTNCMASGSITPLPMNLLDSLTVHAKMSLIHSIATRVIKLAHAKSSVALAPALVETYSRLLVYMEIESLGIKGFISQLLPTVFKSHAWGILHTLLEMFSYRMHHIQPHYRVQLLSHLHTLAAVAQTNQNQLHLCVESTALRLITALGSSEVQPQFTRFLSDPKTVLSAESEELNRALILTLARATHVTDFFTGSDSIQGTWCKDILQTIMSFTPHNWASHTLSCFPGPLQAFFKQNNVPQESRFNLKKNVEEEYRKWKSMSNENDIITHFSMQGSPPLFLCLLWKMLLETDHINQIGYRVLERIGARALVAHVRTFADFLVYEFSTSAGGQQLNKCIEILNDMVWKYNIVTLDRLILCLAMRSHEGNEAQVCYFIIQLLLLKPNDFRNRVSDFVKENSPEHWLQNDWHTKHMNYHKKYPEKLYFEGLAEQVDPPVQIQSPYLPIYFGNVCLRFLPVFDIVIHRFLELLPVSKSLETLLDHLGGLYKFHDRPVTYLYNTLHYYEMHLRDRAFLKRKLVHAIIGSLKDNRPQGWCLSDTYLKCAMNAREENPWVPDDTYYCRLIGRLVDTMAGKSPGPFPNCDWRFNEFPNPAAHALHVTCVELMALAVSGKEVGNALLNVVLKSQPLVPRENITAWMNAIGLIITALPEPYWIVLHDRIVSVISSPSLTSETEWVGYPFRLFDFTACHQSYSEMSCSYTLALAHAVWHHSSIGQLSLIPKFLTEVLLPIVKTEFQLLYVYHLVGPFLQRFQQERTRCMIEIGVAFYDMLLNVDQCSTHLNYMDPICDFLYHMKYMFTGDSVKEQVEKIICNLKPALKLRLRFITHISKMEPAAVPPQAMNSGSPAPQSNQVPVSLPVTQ
UniProt Q9H944: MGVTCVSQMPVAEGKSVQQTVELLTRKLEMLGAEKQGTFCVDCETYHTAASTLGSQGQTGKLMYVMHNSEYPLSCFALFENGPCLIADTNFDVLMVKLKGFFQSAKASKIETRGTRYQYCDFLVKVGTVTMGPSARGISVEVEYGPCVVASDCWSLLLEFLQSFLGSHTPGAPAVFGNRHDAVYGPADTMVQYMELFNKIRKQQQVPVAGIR
UniProt Q96AQ8: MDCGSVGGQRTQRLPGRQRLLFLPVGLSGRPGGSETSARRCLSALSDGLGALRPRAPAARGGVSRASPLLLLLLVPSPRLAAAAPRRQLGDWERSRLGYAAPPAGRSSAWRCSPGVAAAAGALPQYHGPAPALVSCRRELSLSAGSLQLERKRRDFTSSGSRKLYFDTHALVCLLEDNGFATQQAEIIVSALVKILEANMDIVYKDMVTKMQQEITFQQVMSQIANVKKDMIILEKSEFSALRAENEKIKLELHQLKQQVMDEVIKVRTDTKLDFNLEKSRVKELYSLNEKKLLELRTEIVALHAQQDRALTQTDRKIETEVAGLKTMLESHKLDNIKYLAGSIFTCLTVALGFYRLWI
UniProt Q16798: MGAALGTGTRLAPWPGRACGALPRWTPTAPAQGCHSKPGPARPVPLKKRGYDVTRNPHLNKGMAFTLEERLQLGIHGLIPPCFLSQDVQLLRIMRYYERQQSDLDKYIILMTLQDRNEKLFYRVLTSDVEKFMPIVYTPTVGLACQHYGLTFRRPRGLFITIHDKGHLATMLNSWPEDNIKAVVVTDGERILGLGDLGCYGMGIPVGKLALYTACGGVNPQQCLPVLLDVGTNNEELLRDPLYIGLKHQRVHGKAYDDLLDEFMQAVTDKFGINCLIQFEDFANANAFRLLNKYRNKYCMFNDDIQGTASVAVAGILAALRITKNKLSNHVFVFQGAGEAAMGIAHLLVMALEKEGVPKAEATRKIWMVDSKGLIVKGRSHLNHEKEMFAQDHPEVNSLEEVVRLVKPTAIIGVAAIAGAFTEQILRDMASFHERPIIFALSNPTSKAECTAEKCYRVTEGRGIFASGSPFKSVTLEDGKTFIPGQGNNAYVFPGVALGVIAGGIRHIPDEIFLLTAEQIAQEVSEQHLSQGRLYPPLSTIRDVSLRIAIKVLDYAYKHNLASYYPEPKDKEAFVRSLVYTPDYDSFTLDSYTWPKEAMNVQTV
UniProt Q9BTE3: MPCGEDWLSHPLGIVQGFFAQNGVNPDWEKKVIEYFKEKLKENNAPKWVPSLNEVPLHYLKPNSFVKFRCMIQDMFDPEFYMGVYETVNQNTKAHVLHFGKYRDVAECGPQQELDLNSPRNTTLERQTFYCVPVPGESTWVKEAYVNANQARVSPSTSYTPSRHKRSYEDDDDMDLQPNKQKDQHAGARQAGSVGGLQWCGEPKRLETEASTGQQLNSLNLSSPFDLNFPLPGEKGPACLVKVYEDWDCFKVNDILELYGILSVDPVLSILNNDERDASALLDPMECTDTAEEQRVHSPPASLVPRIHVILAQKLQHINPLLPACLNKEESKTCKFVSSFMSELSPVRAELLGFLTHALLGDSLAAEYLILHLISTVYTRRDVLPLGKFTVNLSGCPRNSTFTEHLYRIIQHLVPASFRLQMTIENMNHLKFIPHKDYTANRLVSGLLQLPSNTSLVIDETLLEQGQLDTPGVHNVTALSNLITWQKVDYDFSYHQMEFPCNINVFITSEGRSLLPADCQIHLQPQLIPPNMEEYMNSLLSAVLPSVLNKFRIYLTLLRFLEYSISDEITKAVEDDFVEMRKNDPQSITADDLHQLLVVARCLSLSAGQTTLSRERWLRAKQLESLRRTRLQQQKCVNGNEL
UniProt Q96N66: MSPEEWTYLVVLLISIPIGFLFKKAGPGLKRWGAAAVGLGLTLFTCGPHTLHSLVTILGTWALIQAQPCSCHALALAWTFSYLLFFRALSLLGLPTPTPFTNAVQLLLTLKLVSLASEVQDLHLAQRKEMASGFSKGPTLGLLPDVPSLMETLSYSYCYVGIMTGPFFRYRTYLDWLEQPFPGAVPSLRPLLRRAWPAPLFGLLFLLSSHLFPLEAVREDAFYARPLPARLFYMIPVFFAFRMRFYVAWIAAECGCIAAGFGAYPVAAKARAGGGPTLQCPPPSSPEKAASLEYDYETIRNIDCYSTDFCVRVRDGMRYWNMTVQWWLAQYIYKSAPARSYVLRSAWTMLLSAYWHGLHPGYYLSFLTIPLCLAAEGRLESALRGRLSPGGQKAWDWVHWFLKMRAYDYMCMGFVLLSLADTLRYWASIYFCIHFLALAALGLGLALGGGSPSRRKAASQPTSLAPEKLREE
UniProt Q12866: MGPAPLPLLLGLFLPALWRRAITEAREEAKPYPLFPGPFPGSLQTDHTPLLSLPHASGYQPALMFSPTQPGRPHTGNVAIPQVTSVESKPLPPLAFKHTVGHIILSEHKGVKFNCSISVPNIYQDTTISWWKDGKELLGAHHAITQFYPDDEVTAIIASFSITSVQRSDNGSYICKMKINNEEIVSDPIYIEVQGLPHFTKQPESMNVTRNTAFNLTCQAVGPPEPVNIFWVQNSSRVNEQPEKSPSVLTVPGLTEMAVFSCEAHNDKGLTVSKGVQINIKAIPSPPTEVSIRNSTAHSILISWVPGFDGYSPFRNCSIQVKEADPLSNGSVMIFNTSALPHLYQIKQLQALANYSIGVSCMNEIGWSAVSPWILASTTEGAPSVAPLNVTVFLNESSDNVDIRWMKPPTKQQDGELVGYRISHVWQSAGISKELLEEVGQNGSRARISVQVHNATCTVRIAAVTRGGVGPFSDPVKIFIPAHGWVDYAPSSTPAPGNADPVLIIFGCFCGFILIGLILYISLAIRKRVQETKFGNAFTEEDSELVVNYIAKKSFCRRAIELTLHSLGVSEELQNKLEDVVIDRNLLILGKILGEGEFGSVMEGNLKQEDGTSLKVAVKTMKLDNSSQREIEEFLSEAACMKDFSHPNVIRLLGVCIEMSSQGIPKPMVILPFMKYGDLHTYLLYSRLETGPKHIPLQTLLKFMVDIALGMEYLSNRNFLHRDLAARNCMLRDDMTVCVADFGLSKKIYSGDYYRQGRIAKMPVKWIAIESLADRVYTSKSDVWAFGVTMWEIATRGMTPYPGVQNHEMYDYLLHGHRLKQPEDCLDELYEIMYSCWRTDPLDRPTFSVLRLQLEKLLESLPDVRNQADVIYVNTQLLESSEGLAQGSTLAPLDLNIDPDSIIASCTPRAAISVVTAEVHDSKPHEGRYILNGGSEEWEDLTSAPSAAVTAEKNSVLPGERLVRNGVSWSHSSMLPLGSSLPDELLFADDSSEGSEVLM
UniProt Q9BTT4: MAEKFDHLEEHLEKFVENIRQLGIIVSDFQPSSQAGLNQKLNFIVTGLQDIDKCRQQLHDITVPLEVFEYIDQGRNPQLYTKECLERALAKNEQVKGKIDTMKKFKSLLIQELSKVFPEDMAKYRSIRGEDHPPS
UniProt O75448: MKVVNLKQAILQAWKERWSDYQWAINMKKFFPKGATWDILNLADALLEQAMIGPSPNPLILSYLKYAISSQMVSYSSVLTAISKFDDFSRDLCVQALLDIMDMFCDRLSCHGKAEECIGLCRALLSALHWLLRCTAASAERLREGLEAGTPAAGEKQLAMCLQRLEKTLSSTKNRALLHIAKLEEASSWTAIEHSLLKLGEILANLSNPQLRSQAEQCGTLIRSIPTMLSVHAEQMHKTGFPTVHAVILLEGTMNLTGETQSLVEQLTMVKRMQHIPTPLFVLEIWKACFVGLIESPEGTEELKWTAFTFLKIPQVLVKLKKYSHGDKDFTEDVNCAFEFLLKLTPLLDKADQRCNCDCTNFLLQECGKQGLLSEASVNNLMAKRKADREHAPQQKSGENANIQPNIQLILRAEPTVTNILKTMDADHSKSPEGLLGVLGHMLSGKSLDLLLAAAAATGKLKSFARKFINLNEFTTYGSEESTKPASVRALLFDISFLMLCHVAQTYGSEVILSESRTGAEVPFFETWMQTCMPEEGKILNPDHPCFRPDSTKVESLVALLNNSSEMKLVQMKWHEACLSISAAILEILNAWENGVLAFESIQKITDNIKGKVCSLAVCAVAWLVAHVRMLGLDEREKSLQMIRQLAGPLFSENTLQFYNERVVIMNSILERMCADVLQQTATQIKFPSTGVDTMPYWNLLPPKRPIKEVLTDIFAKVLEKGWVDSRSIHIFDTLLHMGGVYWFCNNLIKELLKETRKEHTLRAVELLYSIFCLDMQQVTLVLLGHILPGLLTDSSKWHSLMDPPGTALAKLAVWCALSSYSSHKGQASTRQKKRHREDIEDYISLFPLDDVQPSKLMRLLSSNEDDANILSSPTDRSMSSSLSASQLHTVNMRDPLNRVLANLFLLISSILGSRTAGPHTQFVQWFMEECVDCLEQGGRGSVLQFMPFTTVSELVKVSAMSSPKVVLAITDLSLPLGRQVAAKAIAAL
UniProt Q7L2J0: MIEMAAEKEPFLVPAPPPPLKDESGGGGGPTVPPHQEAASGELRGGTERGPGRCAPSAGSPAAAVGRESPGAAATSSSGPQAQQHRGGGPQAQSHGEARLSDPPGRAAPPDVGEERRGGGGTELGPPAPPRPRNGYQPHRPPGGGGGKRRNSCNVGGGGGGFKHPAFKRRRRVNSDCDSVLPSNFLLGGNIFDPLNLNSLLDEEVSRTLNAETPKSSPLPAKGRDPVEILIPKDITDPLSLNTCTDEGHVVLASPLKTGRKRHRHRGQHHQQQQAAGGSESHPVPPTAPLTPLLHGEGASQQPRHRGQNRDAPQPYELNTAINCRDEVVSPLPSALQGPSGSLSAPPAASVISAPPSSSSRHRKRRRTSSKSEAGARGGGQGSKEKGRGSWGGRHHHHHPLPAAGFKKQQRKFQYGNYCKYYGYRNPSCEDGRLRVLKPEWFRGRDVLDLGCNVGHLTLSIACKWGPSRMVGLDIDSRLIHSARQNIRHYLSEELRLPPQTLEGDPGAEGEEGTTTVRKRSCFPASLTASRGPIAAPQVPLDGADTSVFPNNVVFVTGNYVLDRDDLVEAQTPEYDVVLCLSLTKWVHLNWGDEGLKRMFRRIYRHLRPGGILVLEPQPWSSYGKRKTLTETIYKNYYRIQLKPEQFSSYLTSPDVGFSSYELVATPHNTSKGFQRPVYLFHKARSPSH

Experiments:
Experiment in all cases: log2 fold change, soluble protein after heating vs DMSO (PISA); higher = thermal stabilisation; K562 lysate, 10 uM; active = over 0.2 and 3.5 SD of the protein, either way, in both replicates (recomputed)
nilotinib = compound: Cc1cn(-c2cc(NC(=O)c3ccc(C)c(Nc4nccc(-c5cccnc5)n4)c3)cc(C(F)(F)F)c2)cn1 [nilotinib]
Procedure, shortened: (§1)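 K562 pellets were dounce-homogenised in PBS pH 7.4 with 1 mM MgCl2, and the crude extract at 1 mg/mL protein was treated with 10 μM compound for 30 min. Aliquots were heated for 3 min across 48°C-58°C, pooled, and brought to 0.5% NP-40 at 4°C; soluble protein was the supernatant after 21,000xg for 90 min. Soluble protein was quantified by TMTpro 16plex LC-MS/MS with channel sums equalised, and reported as log2 fold change in thermal stability against DMSO controls, with values from duplicates.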

[1] = compound: Cc1nc(Nc2n[nH]c3c2CN(C(=O)N[C@H](CN(C)C)c2ccccc2)C3(C)C)c2sccc2n1
Procedure, shortened: as §1

dasatinib = compound: Cc1nc(Nc2ncc(C(=O)Nc3c(C)cccc3Cl)s2)cc(N2CCN(CCO)CC2)n1 [dasatinib]
Procedure, shortened: as §1

[2] = compound: Cc1ncc(-c2ccnc(Nc3ccc(S(C)(=O)=O)cc3)n2)n1C(C)C
Procedure, shortened: as §1

[3] = compound: Cn1cc(-c2ccc3c(c2)CCN3C(=O)Cc2cccc(C(F)(F)F)c2)c2c(N)ncnc21
Procedure, shortened: as §1

quisinostat = compound: Cn1cc(CNCC2CCN(c3ncc(C(=O)NO)cn3)CC2)c2ccccc21 [quisinostat]
Procedure, shortened: as §1

tipifarnib = compound: Cn1cncc1[C@@](N)(c1ccc(Cl)cc1)c1ccc2c(c1)c(-c1cccc(Cl)c1)cc(=O)n2C [tipifarnib]
Procedure, shortened: as §1

[4] = compound: NC(=O)Nc1cc(-c2cccc(F)c2)sc1C(=O)N[C@H]1CCCNC1
Procedure, shortened: as §1

[5] = compound: NC(=O)c1cnc(N[C@@H]2CCCC[C@@H]2N)nc1Nc1cccc(-n2nccn2)c1
Procedure, shortened: as §1

[6] = compound: NC1(c2ccc(-c3nc4ccn5c(=O)[nH]nc5c4cc3-c3ccccc3)cc2)CCC1
Procedure, shortened: as §1

[7] = compound: NCC(=O)Nc1ccc(-n2nc(C(F)(F)F)cc2-c2ccc3c(ccc4ccccc43)c2)cc1
Procedure, shortened: as §1

vorinostat = compound: O=C(CCCCCCC(=O)Nc1ccccc1)NO [vorinostat]
Procedure, shortened: as §1

silmitasertib = compound: O=C(O)c1ccc2c(c1)nc(Nc1cccc(Cl)c1)c1ccncc12 [silmitasertib]
Procedure, shortened: as §1

[8] = compound: O=C1NC(=O)C(c2cnc3ccccn23)=C1c1cn2c3c(cc(F)cc13)CN(C(=O)N1CCCCC1)CC2
Procedure, shortened: as §1

entospletinib = compound: c1cn2cc(-c3ccc4cn[nH]c4c3)nc(Nc3ccc(N4CCOCC4)cc3)c2n1 [entospletinib]
Procedure, shortened: as §1

Measured: log2 fold change

MED23 (UniProt Q9ULK4)
inactive: nilotinib -0.016 | [1] 0.049 | dasatinib -0.01 | [2] -0.027 | [3] 0.031 | quisinostat -0.054 | tipifarnib 0.03 | [4] 0.027 | [5] 0.02 | [6] -0.017 | [7] 0.017 | vorinostat -0.265 | silmitasertib 0.069 | [8] -0.001 | entospletinib 0.014

MED20 (UniProt Q9H944)
inactive: nilotinib 0.038 | [1] -0.022 | dasatinib 0.035 | [2] 0.028 | [3] 0.009 | quisinostat -0.01 | tipifarnib 0.003 | [4] 0.007 | [5] 0.003 | [6] 0.036 | [7] -0.03 | vorinostat -0.088 | silmitasertib -0.061 | [8] -0.014 | entospletinib -0.064

MED4 (UniProt Q9NPJ6)
inactive: nilotinib 0.017 | [1] 0.001 | dasatinib 0.025 | [2] 0.036 | [3] 0.034 | quisinostat -0.005 | tipifarnib -0.054 | [4] -0.007 | [5] 0.02 | [6] -0.024 | [7] -0.005 | vorinostat 0.054 | silmitasertib 0 | [8] -0.012 | entospletinib 0.016

MCUR1 (UniProt Q96AQ8)
inactive: nilotinib -0.05 | [1] -0.008 | dasatinib -0.021 | [2] 0.014 | [3] 0.002 | quisinostat 0.004 | tipifarnib -0.008 | [4] -0.01 | [5] -0.007 | [6] 0.016 | [7] 0.046 | vorinostat 0.09 | silmitasertib -0.071 | [8] 0.006 | entospletinib -0.035

ME3 (UniProt Q16798)
inactive: nilotinib -0.047 | [1] -0.173 | dasatinib 0.034 | [2] -0.33 | [3] -0.052 | quisinostat -0.129 | tipifarnib -0.041 | [4] 0.084 | [5] -0.044 | [6] 0.001 | [7] -0.037 | vorinostat 0.034 | silmitasertib -0.03 | [8] -0.041 | entospletinib -0.01

MDH1 isoform 3 (UniProt P40925)
inactive: nilotinib 0.001 | [1] 0.013 | dasatinib 0.01 | [2] 0.033 | [3] 0.001 | quisinostat 0.052 | tipifarnib 0.029 | [4] -0.034 | [5] -0.037 | [6] 0.004 | [7] 0 | vorinostat 0.145 | silmitasertib -0.007 | [8] 0.012 | entospletinib 0.057

MCMBP isoform 2 (UniProt Q9BTE3)
inactive: nilotinib 0.152 | [1] -0.039 | dasatinib 0.099 | [2] -0.144 | [3] -0.099 | quisinostat -0.076 | tipifarnib 0.066 | [4] -0.041 | [5] 0.082 | [6] -0.118 | [7] -0.153 | vorinostat -0.413 | silmitasertib -0.092 | [8] 0.064 | entospletinib -0.654

Reprinted at random: 2 records from the list, in no set order.
ME3 (UniProt Q16798)
inactive: nilotinib -0.047 | [1] -0.173 | dasatinib 0.034 | [2] -0.33 | [3] -0.052 | quisinostat -0.129 | tipifarnib -0.041 | [4] 0.084 | [5] -0.044 | [6] 0.001 | [7] -0.037 | vorinostat 0.034 | silmitasertib -0.03 | [8] -0.041 | entospletinib -0.01

MED23 (UniProt Q9ULK4)
inactive: nilotinib -0.016 | [1] 0.049 | dasatinib -0.01 | [2] -0.027 | [3] 0.031 | quisinostat -0.054 | tipifarnib 0.03 | [4] 0.027 | [5] 0.02 | [6] -0.017 | [7] 0.017 | vorinostat -0.265 | silmitasertib 0.069 | [8] -0.001 | entospletinib 0.014

(further entries)

METAP2 (UniProt P50579)
inactive: nilotinib 0.028 | [1] 0.028 | dasatinib 0.04 | [2] 0.044 | [3] 0 | quisinostat -0.016 | tipifarnib 0.01 | [4] -0.004 | [5] -0.028 | [6] 0.001 | [7] 0 | vorinostat 0.097 | silmitasertib 0.012 | [8] 0.033 | entospletinib 0.014

MBD2 (UniProt Q9UBB5)
inactive: nilotinib 0.012 | [1] 0.007 | dasatinib -0.039 | [2] 0 | [3] 0.069 | quisinostat -0.014 | tipifarnib -0.011 | [4] -0.009 | [5] -0.003 | [6] 0.024 | [7] 0.018 | silmitasertib 0.017 | [8] -0.022 | entospletinib 0.022
active: vorinostat -0.244

MAZ isoform 2 (UniProt P56270)
inactive: nilotinib 0.028 | [1] 0.016 | dasatinib 0.035 | [2] -0.017 | [3] -0.003 | quisinostat -0.003 | tipifarnib -0.017 | [4] -0.033 | [5] -0.124 | [6] -0.009 | [7] 0.127 | vorinostat -0.005 | silmitasertib -0.13 | [8] 0.006 | entospletinib 0.104

MED30 (UniProt Q96HR3)
inactive: nilotinib 0.008 | [1] 0.018 | dasatinib 0.024 | [2] -0.091 | [3] -0.006 | quisinostat -0.049 | tipifarnib 0.009 | [4] 0.024 | [5] -0.04 | [6] 0.008 | [7] -0.057 | vorinostat -0.076 | silmitasertib -0.001 | [8] -0.014 | entospletinib 0.001

MBOAT7 (UniProt Q96N66)
inactive: nilotinib -0.001 | [1] -0.021 | dasatinib -0.03 | [2] 0.006 | [3] -0.036 | quisinostat 0.028 | tipifarnib 0.057 | [4] 0.023 | [5] -0.014 | [6] -0.011 | [7] -0.003 | vorinostat 0.158 | silmitasertib -0.027 | [8] 0.014 | entospletinib 0.031

MERTK (UniProt Q12866)
inactive: nilotinib -0.017 | [1] -0.006 | dasatinib -0.078 | [2] 0.045 | [3] 0.106 | quisinostat -0.003 | tipifarnib -0.263 | [4] -0.027 | [5] 0.055 | [6] -0.021 | [7] -0.093 | vorinostat 0.01 | silmitasertib 0.016 | [8] -0.027 | entospletinib -0.038

MED13L (UniProt Q71F56)
active: vorinostat -0.253
inactive: nilotinib 0.06 | [1] -0.056 | dasatinib 0.017 | [2] 0.032 | [3] 0.045 | quisinostat -0.055 | tipifarnib -0.012 | [4] 0.069 | [5] 0.014 | [6] 0.015 | [7] -0.057 | silmitasertib 0.017 | [8] 0.017 | entospletinib -0.052

MED10 (UniProt Q9BTT4)
inactive: nilotinib 0.042 | [1] -0.012 | dasatinib 0.031 | [2] -0.021 | [3] 0.043 | quisinostat 0.04 | tipifarnib -0.066 | [4] -0.082 | [5] 0.025 | [6] -0.045 | [7] -0.001 | vorinostat -0.04 | silmitasertib -0.085 | [8] 0.021
active: entospletinib -0.349

MEAF6 isoform 3 (UniProt Q9HAF1)
inactive: nilotinib 0.009 | [1] -0.045 | dasatinib -0.002 | [2] -0.036 | [3] -0.025 | quisinostat -0.092 | tipifarnib 0.012 | [4] 0.02 | [5] -0.018 | [6] 0 | [7] 0.01 | vorinostat 0.083 | silmitasertib -0.027 | [8] -0.004 | entospletinib 0

MED24 (UniProt O75448)
inactive: nilotinib 0.023 | [1] 0.014 | dasatinib -0.027 | [2] 0.034 | [3] -0.006 | quisinostat -0.062 | tipifarnib -0.017 | [4] 0.059 | [5] 0.001 | [6] -0.008 | [7] -0.009 | vorinostat -0.17 | silmitasertib -0.019 | [8] 0.017 | entospletinib -0.059

MDN1 (UniProt Q9NU22)
inactive: nilotinib 0.031 | [1] -0.006 | dasatinib -0.07 | [2] 0.036 | [3] 0.008 | quisinostat -0.124 | tipifarnib -0.027 | [4] 0.035 | [5] -0.001 | [6] -0.047 | [7] 0 | vorinostat -0.175 | silmitasertib 0.025 | [8] -0.003 | entospletinib -0.017

ME1 (UniProt P48163)
inactive: nilotinib -0.02 | [1] -0.021 | dasatinib 0.046 | [2] -0.014 | [3] 0.02 | quisinostat -0.051 | tipifarnib 0 | [4] 0.006 | [5] -0.007 | [6] -0.013 | [7] -0.06 | vorinostat 0.142 | silmitasertib -0.013 | [8] -0.04 | entospletinib -0.006

MEPCE (UniProt Q7L2J0)
inactive: nilotinib 0.011 | [1] 0.001 | dasatinib 0.021 | [2] -0.005 | [3] 0.033 | quisinostat 0.008 | tipifarnib -0.004 | [4] 0.009 | [5] 0 | [6] 0.023 | [7] -0.041 | vorinostat -0.093 | silmitasertib 0.005 | [8] -0.073 | entospletinib 0.028

MED17 (UniProt Q9NVC6)
active: vorinostat -0.392
inactive: nilotinib -0.011 | [1] 0.036 | dasatinib -0.033 | [2] -0.116 | [3] -0.014 | quisinostat -0.033 | tipifarnib -0.075 | [4] 0.019 | [5] 0.038 | [6] 0.005 | [7] -0.051 | silmitasertib -0.008 | [8] -0.006 | entospletinib 0.083
